Positions count from the first letter of the chain named. Numbers in names are those of the source. These are yes or no findings as the source states them, for the method shown. Some results given as binding are weak or reduced against the parent protein; the word gives no strength. For part of these data: Sequences can lack the tags named with a protein. One block for each binder: values may come before it.
Columns and labels:
[1] = target: human BCMA-Fc (human) (UniProt Q02223); test: receptor-binding ELISA, human BCMA-Fc coated, doubling dilutions of conditioned medium from undiluted, anti-FLAG-HRP; APRIL amounts not matched [BCMA-Fc coating]
[2] = target: T1, human TACI-Fc (human) (UniProt O14836); test: receptor-binding ELISA, human TACI-Fc coated, doubling dilutions of conditioned medium from undiluted, anti-FLAG-HRP; APRIL amounts not matched [TACI-Fc coating]
T1 sequence (looked up): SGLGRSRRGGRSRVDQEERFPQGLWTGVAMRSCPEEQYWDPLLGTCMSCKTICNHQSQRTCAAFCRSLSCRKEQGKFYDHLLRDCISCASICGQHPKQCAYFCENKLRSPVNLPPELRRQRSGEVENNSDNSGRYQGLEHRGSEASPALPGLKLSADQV

Chains of the proteins cited; added tags and fusions are not shown. Residues count along the entry.
UniProt Q02223, residues 2-54: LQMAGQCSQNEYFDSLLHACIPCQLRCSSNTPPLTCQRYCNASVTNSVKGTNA

B2: T175L (ligand)
soluble APRIL monomer: AVLTQKQKKQHSVLHLVPINATSKDDSDVTEVMWQPALRRGRGLQAQGYGVRIQDAGVYLLYSQVLFQDVLFTMGQVVSREGQGRQETLFRCIRSMPSHPDRAYNSCYSAGVFHLHQGDILSVIIPRARAKLNLSPHGTFLGFVKL
binding [1]: binds

B3: T175F (ligand)
soluble APRIL monomer: B2 soluble APRIL monomer with L71F
binding [1]: binds

B4: D132A (ligand)
soluble APRIL monomer: B2 soluble APRIL monomer with D28A, L71T
binding [1]: binds | binding [2]: binds

Continued, values first:

binding [1]: binds | binding [2]: binds
B1: R233A (ligand)
soluble APRIL monomer: B2 soluble APRIL monomer with L71T, R129A

binding [1]: binds | binding [2]: binds
B5: R233E (ligand)
soluble APRIL monomer: B2 soluble APRIL monomer with L71T, R129E

binding [1]: binds
B6: T175Y (ligand)
soluble APRIL monomer: B2 soluble APRIL monomer with L71Y

— US20140178329A1
